# Laboratory results: PubChem BioAssay AID1460 (National Center for Advancing Translational Sciences (NCATS), 2008)
# By UniProt entry, the sequences of proteins in these tests, tags left out. Residues count along the entry.
# UniProt P10636, 561-689 P618L limits assumed: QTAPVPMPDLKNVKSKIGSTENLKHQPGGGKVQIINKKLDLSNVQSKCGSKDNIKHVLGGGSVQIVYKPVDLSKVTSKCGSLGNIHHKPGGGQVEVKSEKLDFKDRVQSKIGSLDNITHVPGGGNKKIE
# In all, about 270,000 compounds went through this assay and about 5,800 (2.1%) were called active. The source calls these results inconclusive, neither active nor inactive. Calls follow the shape of the dose curve; as a rule, active = well fitted inhibition curve with a large enough effect; inconclusive = small, poorly fitted or top-dose-only effect; inactive = flat fitted curve, though single readings scatter. Some tests of the compounds listed are not included; inactive here does not mean inactive elsewhere.
# Target: Microtubule-associated protein tau (Homo sapiens) (UniProt P10636)
# Assay: qHTS for Inhibitors of Tau Fibril Formation, Thioflavin T Binding; also: nearly all actives have a fitted effect of over 55% in size
# Conditions: recombinant tau K18 P301L (four-repeat tau fragment), heparin-induced fibrillization, ThT fluorescence
# Potency is read from the fitted curve at half-maximal effect.
row,SMILES,Potency
1,COc1ccc(Br)c(C(=O)NCC2(N3CCCCC3)CCCCC2)c1,inconclusive: 5.01 µM
